Values from PubChem BioAssay AID1259308 (NCATS, 2017).

- Aim: 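Candidate targets for better recombinant protein yield in mammalian cells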 (primary screen)
- Cells: human HEK293 embryonic kidney cells stably expressing firefly luciferase (HEK-CMV-Luc2-Hygro)
- Reagents: single siRNA against human genes, 0.8 pmol siRNA per well
- Timing: 72 h
- Measured: 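Luciferase light (ONE-Glo) measured on one replicate plate set and viability (CellTiter-Glo) on the other, scaled to a negative control siRNA, with robust z-scores and luciferase per cell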
- Direction: total luciferase, z-score: higher = more reporter protein produced
- Active means: 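Active when the median/MAD z-score for overall luciferase is greater than 3; a gene was taken forward for validation with new siRNAs if at least two of its three siRNAs passed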
- Calls: active = raised luciferase; inactive = no rise
Shown is a random part of about 59,000 reagents. About 1,510 of them (2.6%) were called active. 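Calls use total luciferase alone and ignore viability, so some active siRNAs may act by altering cell number.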 A number with no mark means an inactive call. Further read-outs or replicates are left out here.

| gene symbol | PubChem SID | total luciferase, z-score |
| --- | --- | --- |
| FAM50A | SID160721543 | 0.242 |
| FAM50A | SID160721544 | 1.29 |
| FAM50A | SID160721545 | -0.282 |
| BEX2 | SID160735113 | 1.16 |
| BEX2 | SID160752637 | -1.01 |
| BEX2 | SID160752638 | 2.13 |
| VN2R17P | SID160770387 | 1.65 |
| VN2R17P | SID160770388 | 0.0599 |
| VN2R17P | SID160770389 | 1.14 |
| SSTR3 | SID160717407 | -2.13 |
| SSTR3 | SID160717408 | -0.231 |
| SSTR3 | SID160731798 | 0.0964 |
| NHERF1 | SID160722048 | -0.887 |
| NHERF1 | SID160722050 | -0.314 |
| NHERF1 | SID160722051 | 1.31 |
| ITLN1 | SID160743864 | 0.112 |
| ITLN1 | SID160743865 | 1.63 |
| ITLN1 | SID160743866 | -0.252 |
| OTUB2 | SID160748430 | 0.438 |
| OTUB2 | SID160748431 | 1.26 |
| OTUB2 | SID160748432 | -0.77 |
| EGLN1 | SID160741945 | 0.676 |
| EGLN1 | SID160741947 | -0.741 |
| EGLN1 | SID160741948 | 0.463 |
| FCGR1A | SID160764386 | 0.154 |
| FCGR1A | SID160764396 | 0.614 |
| FCGR1A | SID160764408 | 0.32 |
| LMNB1 | SID160776664 | -0.66 |
| LMNB1 | SID160776665 | -2.34 |
| LMNB1 | SID160776666 | -0.788 |
| ANKRD44 | SID160754002 | -0.66 |
| ANKRD44 | SID160754003 | 0.423 |
| ANKRD44 | SID160754004 | -1.29 |
| TACSTD2 | SID160776815 | 1.8 |
| TACSTD2 | SID160776816 | -0.146 |
| TACSTD2 | SID160776817 | 1.92 |
| CHMP4B | SID160756815 | 0.238 |
| CHMP4B | SID160756816 | 1.08 |
| CHMP4B | SID160756817 | 3.05 (active) |
| ABHD18 | SID160750140 | 0.847 |
| ABHD18 | SID160750141 | -2.31 |
| ABHD18 | SID160750142 | -0.65 |
| ALG13 | SID160744516 | 2.05 |
| ALG13 | SID160744517 | 1.69 |
| ALG13 | SID160744518 | -0.668 |
| ALG13 | SID160749649 | -0.17 |
| ALG13 | SID160749650 | 0.769 |
| ALG13 | SID160749651 | -0.634 |
| ALG13 | SID160772202 | -0.685 |
| ALG13 | SID160772203 | 1.28 |
| ALG13 | SID160772205 | -0.336 |
| TCEA3 | SID160717776 | -2.33 |
| TCEA3 | SID160717777 | -0.622 |
| TCEA3 | SID160717778 | 0.431 |
| PCDHGA2 | SID160744801 | 1.55 |
| PCDHGA2 | SID160744802 | -0.797 |
| PCDHGA2 | SID160744803 | 1.01 |

Part of the list above, set out differently:
{"gene symbol": "OTUB2", "PubChem SID": "SID160748432", "total luciferase, z-score": -0.77}
{"gene symbol": "EGLN1", "PubChem SID": "SID160741945", "total luciferase, z-score": 0.676}
{"gene symbol": "EGLN1", "PubChem SID": "SID160741947", "total luciferase, z-score": -0.741}
{"gene symbol": "EGLN1", "PubChem SID": "SID160741948", "total luciferase, z-score": 0.463}
{"gene symbol": "FCGR1A", "PubChem SID": "SID160764386", "total luciferase, z-score": 0.154}
